Article PMC12040169 (PLOS Biology, 2025)
Some of the results follow.

The compounds below were run on T1, CTL2-GFP (C. trachomatis L2/434/Bu, GFP-expressing). Conditions: bulk GFP, single well; 28.5 h, 10 µM; inhibitor.
T1 construct: L2/434/Bu, GFP-expressing
Parameters: species or system HeLa; Intracellular C. trachomatis growth in HeLa cells, bulk GFP fluorescence relative to DMSO

Q: With `CC(C)(Oc1ccc(Br)cc1)C(=O)NCCOc1ccccc1` [CBK268287] as the compound, how does the “% of control remaining” value read?
A: 97.9143%

Q: How did the “% of control remaining” value turn out when `Cc1ccc(OCC(=O)NC(=S)Nc2cc(-c3nc4ncccc4o3)ccc2Cl)cc1` [CBK265214] was run?
A: 106.848%

Q: For `CC(=O)Oc1cc(Cl)ccc1C(=O)Nc1nnc(C(F)(F)F)s1` [CBK017569], which “% of control remaining” value is on record?
A: 116.431%

Q: `Cc1nnc(NCCN2CCOCC2)[nH]c1=O` [CBK267912] was tested. Which “% of control remaining” value did it give?
A: 85.5624%

Q: For `Oc1nc(CN2CCN(Cc3ccc4c(c3)OCO4)CC2)nc2ccccc12` [CBK074355], which “% of control remaining” value is on record?
A: 113.606%

Q: `NNC(=O)CSc1nnc2ccc(C(F)(F)F)cn12` [CBK006897] was tested. Which “% of control remaining” value did it give?
A: 114.241%

Q: With `CN1CCC(N(C)C(=O)Nc2ccc(C(N)=O)cc2)C1` (stereo not drawn) [CBK156015] as the compound, how does the “% of control remaining” value read?
A: 100%

Q: How did the “% of control remaining” value turn out when `CCc1c(C)sc2ncn(C3CCN(C(=O)C(C)C)CC3)c(=O)c12` [CBK282377] was run?
A: 109.061%

Q: `Cc1cc(CNC(=O)[C@@H]2Cc3cn(C)c4cccc(c34)[C@H](CC(C)C)N2)no1` [CBK289420] was tested. Which “% of control remaining” value did it give?
A: 130.941%

Q: How did the “% of control remaining” value turn out when `Nc1ncc(-c2cccc(C(=O)O)c2)nc1-c1ccc(O)cc1` [CBK200420] was run?
A: 132.82%

Q: `O=C(Nc1ccnn1Cc1cccs1)N1Cc2cnn(CCO)c2C1` [CBK307150] was tested. Which “% of control remaining” value did it give?
A: 119.319%

Q: How did the “% of control remaining” value turn out when `N#Cc1c(-c2ccc(Cl)cc2)c[nH]c1N` [CBK019323] was run?
A: 108.935%

Q: For `O=C(NC1CCN(Cn2nnc3ccccc3c2=O)CC1)C1CC1` [CBK305584], which “% of control remaining” value is on record?
A: 140.134%

Q: `CC(=O)c1ccc(NC(=O)CC2SC(=N)NC2=O)cc1` (stereo not drawn) [CBK265625] was tested. Which “% of control remaining” value did it give?
A: 100%

Q: How did the “% of control remaining” value turn out when `CCOc1ccc(-c2cncc(N3CCN(C(=O)c4ccco4)CC3)n2)cc1` [CBK065860] was run?
A: 94.2189%

Q: How did the “% of control remaining” value turn out when `CC(=O)NCc1cccc(-c2cncc(C(=O)Nc3ccc4c(c3)OCCO4)c2)c1` [CBK161009T] was run?
A: 82.5231%

Q: How did the “% of control remaining” value turn out when `O=C(NCc1ccco1)/C(=C\c1ccccc1)NC(=O)c1ccc(Br)cc1` [CBK263701] was run?
A: 132.262%

Q: `CN(C)c1nc(NCc2ccccc2)nc(SCC(=O)Nc2ccccc2Cl)n1` [CBK267190] was tested. Which “% of control remaining” value did it give?
A: 153.565%

Q: For `Cc1cc(C2CCCN2C(=O)c2cnn3c(C)cc(C)nc23)on1` (stereo not drawn) [CBK305634], which “% of control remaining” value is on record?
A: 129.855%

Q: For `COc1cc(-c2ccc(N)c3ccccc23)cc(OC)c1OC` [CBK084332], which “% of control remaining” value is on record?
A: 115.712%

Q: With `COc1ccc(-c2cccc(N3CCN(CCN4CCCC4)CC3)n2)cc1OC` [CBK037680] as the compound, how does the “% of control remaining” value read?
A: 116.248%

Q: `CCC(C(=O)Nc1ccc(OC(C)=O)cc1C(=O)O)c1ccccc1` (stereo not drawn) [CBK269685] was tested. Which “% of control remaining” value did it give?
A: 101.765%

Q: With `CCOc1ccc(CN2CCN(CCCc3ccccc3)CC2)cc1` [CBK264153G] as the compound, how does the “% of control remaining” value read?
A: 100%

Q: Which “% of control remaining” value does the source give for `C=Cn1ncc(CN(C)Cc2nc3ccccc3[nH]2)c1C` [CBK283170] here?
A: 104.518%

Q: How did the “% of control remaining” value turn out when `Cc1ccccc1Nc1nc(N)nc(CN2CCCC2)n1` [CBK306152] was run?
A: 85.9019%

Q: `CCOc1ccccc1OCCCOc1ccc(C(=O)O)cc1` [CBK295144] was tested. Which “% of control remaining” value did it give?
A: 115.947%

Q: With `Nc1nc(CCC(=O)N2CCCC(c3cc(O)ncn3)C2)cs1` (stereo not drawn) [CBK306976] as the compound, how does the “% of control remaining” value read?
A: 123.955%

Q: How did the “% of control remaining” value turn out when `CCC(C)c1ccc(NC(C)C(=O)Nc2ccc3[nH]c(=O)[nH]c3c2)cc1` (stereo not drawn) [CBK296694] was run?
A: 152.414%

Q: For `O=C(CCn1c(C(F)F)cc2cccnc21)NCc1ccncc1` [CBK285027], which “% of control remaining” value is on record?
A: 97.0268%

Q: With `CS(=O)(=O)N(Cc1ccccc1F)c1ccccc1C(=O)O` [CBK287239] as the compound, how does the “% of control remaining” value read?
A: 135.215%

Q: With `COc1cccc(CN(C)C2CCN(C)CC2)c1OC` [CBK261532] as the compound, how does the “% of control remaining” value read?
A: 109.879%

Q: With `CC(=O)Nc1cccc(-c2cnc(N)c(N3CCN(CCN(C)C)CC3)n2)c1` [CBK063472] as the compound, how does the “% of control remaining” value read?
A: 163.686%

Q: How did the “% of control remaining” value turn out when `COc1ccc2c(c1)nc(SCC(O)c1ccccc1)n2C` (stereo not drawn) [CBK262508] was run?
A: 113.614%

Q: How did the “% of control remaining” value turn out when `O=C(O)CSc1nnc(-c2ccc(S(=O)(=O)N3CCCCCC3)cc2)o1` [CBK300508] was run?
A: 143.359%

Q: How did the “% of control remaining” value turn out when `OCCN1CCN(c2nc(C3CCOC3)cn3ccnc23)CC1` (stereo not drawn) [CBK037931] was run?
A: 177.421%

Q: Which “% of control remaining” value does the source give for `Cc1nn(C)c(C)c1C(C)NS(=O)(=O)Cc1cccc(F)c1` (stereo not drawn) [CBK281396] here?
A: 101.732%

Q: With `OC(Cn1c(Cc2ccccc2)nc2ccccc21)Cn1c2ccccc2c2ccccc21` (stereo not drawn) [CBK262570] as the compound, how does the “% of control remaining” value read?
A: 100%

Q: With `O=C(O)C1CCN(c2c(-c3ccccc3)c3cc(Cl)ccc3[nH]c2=O)CC1` [CBK287198] as the compound, how does the “% of control remaining” value read?
A: 127.727%

Q: `N#Cc1ccc(-n2cc(-c3ccc(F)cc3F)nn2)cc1` [CBK112990] was tested. Which “% of control remaining” value did it give?
A: 133.41%

Q: With `CSc1nnc(CCCNC(=O)c2cccc(C#N)c2)n1C1CCCC1` [CBK305459] as the compound, how does the “% of control remaining” value read?
A: 111.268%

Q: How did the “% of control remaining” value turn out when `COc1ccc(NS(=O)(=O)c2ccc(NC(=O)c3nc4nc(C)cc(C(F)F)n4n3)cc2)cc1` [CBK266123] was run?
A: 140.329%

Q: `CCC(CO)Nc1cncc(-c2cccc(F)c2)n1` (stereo not drawn) [CBK065752] was tested. Which “% of control remaining” value did it give?
A: 97.3442%

Q: Which “% of control remaining” value does the source give for `COc1cc(Nc2nc(-c3ccco3)cn3ccnc23)cc(OC)c1OC` [CBK037413] here?
A: 191.603%

Q: For `CCC(=O)NCCCn1c(-c2cccnc2C)cc2cccnc21` [CBK282646], which “% of control remaining” value is on record?
A: 119.055%

Q: With `CN(C(=O)Cn1cc(C(=O)NCC(C)(C)c2ccc(F)cc2)ccc1=O)c1ccccc1` [CBK285662] as the compound, how does the “% of control remaining” value read?
A: 116.09%

Q: With `O=c1c(Cc2ccccc2)c(O)c2cccc3c2n1CCC3` [CBK291166] as the compound, how does the “% of control remaining” value read?
A: 133.473%

Q: How did the “% of control remaining” value turn out when `Cc1cc(C)nc(NS(=O)(=O)c2ccc(Nc3ccc4nonc4c3[N+](=O)[O-])cc2)n1` [CBK261444] was run?
A: 34.2368%

Q: `CCCCN=C(NCCCn1cccn1)N1CCCN(C(C)=O)CC1` [CBK304273I] was tested. Which “% of control remaining” value did it give?
A: 108.108%

Q: `COC(=O)c1ccc(CN2CCC(Oc3nccnc3OCc3ccc(Cl)c(Cl)c3)CC2)o1` [CBK153782] was tested. Which “% of control remaining” value did it give?
A: 116.625%

Q: `CO/N=C(/C(=O)O)c1cn2cc(Br)ccc2n1` [CBK260925G] was tested. Which “% of control remaining” value did it give?
A: 115.817%

Q: For `CCOC(=O)N1CCN(c2cccc3[nH]c(C(=O)O)cc23)CC1` [CBK083477], which “% of control remaining” value is on record?
A: 119.232%
